# Source: the supplement of paper PMC3334620
# Over roughly 33,000 sequences, “E-score (-0.5 to 0.5)” has its median near -0.0014; the highest 2% begin near 0.25. The list shows a part of the results.
# Biological target: T1, Cad1 (UniProt P24813)
# T1 sequence: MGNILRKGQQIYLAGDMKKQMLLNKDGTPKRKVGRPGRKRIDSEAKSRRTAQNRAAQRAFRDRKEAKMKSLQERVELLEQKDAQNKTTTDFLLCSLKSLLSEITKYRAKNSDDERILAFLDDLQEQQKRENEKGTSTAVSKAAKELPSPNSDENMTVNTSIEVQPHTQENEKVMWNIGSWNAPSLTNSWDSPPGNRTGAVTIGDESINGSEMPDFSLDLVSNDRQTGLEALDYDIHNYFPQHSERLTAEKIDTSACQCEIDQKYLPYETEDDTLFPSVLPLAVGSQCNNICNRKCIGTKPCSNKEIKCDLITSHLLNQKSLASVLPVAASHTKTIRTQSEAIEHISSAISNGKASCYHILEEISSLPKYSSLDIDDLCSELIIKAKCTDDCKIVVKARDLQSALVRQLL
# Test: PBM E-score (8-mer binding enrichment) (E-score (-0.5 to 0.5)); higher = stronger / more preferred TF binding
# Conditions: protein concentration: 100 nM; construct: GST-full length
# Procedure: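 Universal 'all 10-mer' protein binding microarrays (Agilent AMADID 015681) probed with GST-tagged S. cerevisiae TFs (full-length or DBD) made by in vitro transcription/translation (PURExpress), about 100-200 nM. Bound TF was detected with fluorescent anti-GST. Each ungapped 8-mer (which stands for itself and its reverse complement) is scored by the PBM enrichment score (E-score), a modified Wilcoxon-Mann-Whitney statistic from -0.5 to +0.5, computed with the Universal PBM Analysis Suite. Scale: above 0.35 generally sequence-specific binding.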
row,Sequence,PBM E-score
1,ATCCCGCG,0.171
2,TGCAAACA,-0.159
3,CGAATCGA,0.325
4,ACTAGGCG,0.0697
5,CGTACACA,0.0609
6,TGCGATAA,0.218
7,ATGTCACC,0.0545
8,ACGATACC,0.116
9,CGTGTCTC,-0.16
10,AAGCAGAT,0.183
11,ATGCGTGC,0.072
12,GAAAGCCA,-0.18
13,CTGTCACA,0.0656
14,AAAAATTA,0.254
15,AAGGATCA,-0.0795
16,ATGAAGAC,0.119
17,AACTTTAA,0.202
18,TAGCTGGA,-0.241
19,GAATGTCC,0.0725
20,GGGAGCTA,-0.318
21,CGTACGCC,-0.12
22,ATAAGGCA,-0.0642
23,GAGCGTGA,-0.0968
24,CTCGTGGA,-0.0526
25,ATGAGTTG,-0.0145

row,Sequence,PBM E-score
1,AAGGGTCA,-0.138
2,ATCTTCTA,0.0108
3,GCATTCCC,-0.154
4,TACCTCAA,-0.125
5,ACGGAAGC,0.171
6,CACCCTGC,-0.161
7,TTGTGAAA,0.0278
8,ACATGATC,0.178
9,AAGGTTTA,-0.216
10,CGCCAGCG,0.0804
11,AAAGCAGA,0.0951
12,GACCAACC,0.0482
13,CAAGAGGA,-0.154
14,ACATACCC,-0.0375
15,GCAAAGGA,0.0254
16,ATCAACTA,0.226
17,ATATTCCC,0.00285
18,GAATTGCC,-0.0427
19,CGATTTAA,0.083
20,CATTAAAC,0.0901
21,CTGTAACC,0.0599
22,CAGGGATG,0.0863
23,AGTGGACC,-0.137
24,AATGGGGC,-0.264
25,ATGTCCGA,0.0361

# 4 entries drawn at random from the list so far:
row,Sequence,PBM E-score
25,ATGTCCGA,0.0361
17,ATATTCCC,0.00285
15,GCAAAGGA,0.0254
8,ACATGATC,0.178

# Continuation:

row,Sequence,PBM E-score
1,AAAATATT,0.192
2,GCTCTCCC,-0.223
3,GGGAGGGA,-0.0952
4,ATTATGCA,0.031
5,AAAGCATG,0.0176
6,CCGGGAAA,0.0234
7,GAGTAACA,-0.00744
8,CATAAATC,0.144
9,GATTTGGA,-0.013
10,CAGGATGG,-0.145
11,TAGCGATA,0.182
12,AGGCGAAA,-0.146
13,CGGAGAGA,-0.094
14,AACCATGA,0.0729
15,CAGGTTAC,-0.0155
16,AATGCATT,0.229
17,ATCCAACG,-0.0785
18,ACACACTA,0.187
19,GACGGGAC,-0.233
20,GAATCCAA,-0.0184
21,AAGGAAAC,-0.0901
22,ACCCAGTG,-0.259
23,CGCGCTCA,0.198
24,ATACGACC,-0.131
25,AAGCGAAC,0.043

row,Sequence,PBM E-score
1,CGCCAGGA,-0.0577
2,ACGAGCAG,0.0971
3,AGCGACGG,0.106
4,AAATCATA,0.148
5,CTGGGCTA,-0.0636
6,CTATTTCA,0.191
7,CACCGGAC,-0.135
8,ACCGTCGT,0.196
9,CATCTTCC,-0.0764
10,ACATTGGC,-0.0363
11,GTCGGTTA,0.00175
12,CGGGCGAA,-0.0692
13,GGGCGAAC,0.112
14,CTAGGTAC,0.134
15,GGATGCCC,-0.205
16,ACCGAGCT,0.0164
17,CATATACA,0.177
18,ATATTCCA,0.138
19,ATGGTCAA,0.139
20,CATAGTGA,-0.0782
21,CGCAGACA,0.122
22,CATCCCAG,-0.166
23,ATGACGGC,-0.0574
24,CGAGGAAA,-0.0673
25,CTATTTTC,0.0407

row,Sequence,PBM E-score
1,CTGCACCC,-0.136
2,GCGCTGAC,0.245
3,CTTTACAC,0.172
4,GCTGGCCC,-0.144
5,AGATATGC,-0.167
6,AAGCGTCC,0.0365
7,CAGCAGAG,-0.0408
8,ACTTGTGC,-0.187
9,CAAAGAGA,-0.113
10,AAGGTACA,-0.0137
11,AAAAGTCA,-0.0226
12,CGCTAAAG,0.0404
13,AAATCCTC,-0.0802
14,ATAACTCC,0.0565
15,TCGTTGAA,0.0173
16,CTACGTAC,-0.0392
17,ACGGAACC,0.218
18,CTGGTGAA,-0.16
19,GACGGTTA,-0.202
20,GAATAATA,0.221
21,ACAAGGAT,0.0332
22,ATCGGTCA,0.104
23,CATTATCG,0.0756
24,CACGGTGC,-0.119
25,CCATCGCC,-0.0556

row,Sequence,PBM E-score
1,ACGACCCG,0.112
2,ACGGGGGA,-0.273
3,CCTATACA,0.0765
4,AAAGCGAC,0.0955
5,ATAAAAAG,0.174
6,GGGAATAA,0.2
7,CTCTGCAC,-0.0219
8,AAAGCACT,0.14
9,AATACGCC,0.0775
10,CCGCTATC,0.0194
11,CGTCCCCA,-0.137
12,GGATTTGA,-0.0857
13,CTGTATAC,0.0948
14,GTCAGTCA,0.0261
15,GTCACCTA,-0.132
16,ACTTAATC,0.00296
17,ACGATTGC,0.213
18,GGCATCAC,-0.0624
19,GGTATCAC,-0.0764
20,AGGTTTTC,0.048
21,AGCCTAGG,-0.113
22,ACCTTAAA,-0.0455
23,AATTCGGT,0.266
24,GTACAGCA,0.032
25,ATACACAT,0.122

row,Sequence,PBM E-score
1,ACAGATAC,0.144
2,GTACGCAA,0.0953
3,GCAGTTTA,-0.0956
4,CTGAGGGA,-0.0379
5,CTAGCAGA,0.0267
6,AATCAAGG,0.0051
7,CCCGGCAC,-0.335
8,CCCAAGTA,-0.121
9,CGCACACG,-0.156
10,AGAGTCTA,-0.202
11,GGGACCTA,-0.116
12,ATTTAAAA,0.0372
13,GTCAAGAA,0.181
14,ATTGTGAC,0.147
15,AAGTGGAA,-0.0197
16,CAGCCTTA,-0.0382
17,CCCAAACC,0.00294
18,CAATAATA,0.208
19,AACGGTGC,-0.0173
20,ACTGGGCC,-0.0322
21,CGAACCTC,-0.0124
22,AGCTGAAG,0.0627
